Test results as given in doi:10.1101/2024.12.20.629780v2 (bioRxiv, 2024).

Assay: Circular dichroism secondary structure
Format: physicochemical
Settings: CD, 50 µmol L-1 peptide, 25 °C, BeStSel

**Q.** Which “α-helical structure fraction in water” value does the source give for WYLIRVALIAFKKA [Turingcin-21] here?
**A.** 29.5%

**Q.** With RRWVHKILLIIIKILA [Turingcin-1] as the sequence, how does the “α-helical structure fraction in water” value read?
**A.** 31.4%

**Q.** For RLKSILLLIVTKINIRLKIA [Turingcin-7], which “α-helical structure fraction in water” value is on record?
**A.** 39%
